Results as given in paper PMC7705020.

Tested on: GST-MdSND1 (Malus x domestica)
Assay: EMSA
Details: Biyuntian EMSA binding buffer, 30 min; 200-fold unlabeled probe for competition; pH and temperature not stated; recombinant protein; protein details: N-terminal GST (pGEX); label: biotin

Sequence	binding result
AAAGAGTCAAGGCTTTCTTCCTAAGCAAGTAATAATA (double strand) [pMdAREB1B-SNBE (P3)]	binds
AATAAAAAAACATTTTTTATGGACGAAATTGCCCCGG (double strand) [pMdAREB1A-SNBE (P1)]	binds
ACTTCTATCAACTTTGACATCAAAGCAAGAGCTGCCC (double strand) [pMdRD29A-SNBE (P1)]	binds
ATGATTCATTTTTCTTCACTCACAAGGTAATCATGTAC (double strand) [pMdMYB83B-SNBE]	binds
CACTTGCATTATCTTGAGGGACAAGGATTGTCTGCCC (double strand) [pMdRD22-SNBE (P3)]	binds
TATTATGATTACCTTGAGAATGAAGAAAATAGGTTTA (double strand) [pMdMYB46-SNBE]	binds
TCAGTGTTCAATTCTCCACCACACGGAATTGAACATG (double strand) [pMdDREB2A-SNBE (P2)]	binds
TCGATTCATTTTTCTTCACTCACAAGGTAATCCTATAT (double strand) [pMdMYB83A-SNBE]	binds

Tested on: GST
Assay: EMSA
Details: Biyuntian EMSA binding buffer, 30 min; 200-fold unlabeled probe for competition; pH and temperature not stated; recombinant protein; protein details: GST; label: biotin

Sequence	binding result
TATTATGATTACCTTGAGAATGAAGAAAATAGGTTTA (double strand) [pMdMYB46-SNBE]	no binding

The exact form of at least one protein or probe is not confirmed. For part of these data: No signal at the amounts used counts as a negative.
